Data source: PubChem BioAssay AID1671195 (Yale University, 2021)
Screen: 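Regulators of LDL receptor activity judged by labelled LDL uptake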 (primary screen). System: human Huh7 hepatoma cells. Reagents: siRNA pool against human genes, 18 nM. Timing: about 2 to 2.5 days of knockdown, then 8 h LDL uptake. Challenge: DiI-labelled LDL at 30 µg/ml for 8 h, in lipoprotein-deficient serum medium. Measurement: 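Per-cell DiI-LDL intensity by automated imaging; well means scaled to the plate median and given as a robust z-score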. Scale: robust z-score: higher = more LDL uptake after knockdown. Active means: 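Active when two or more replicates show a robust z-score above 2 or below -2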.
The whole screen tested about 22,000 reagents; this is an unselected part. About 1,510 of them (6.9%) count as active. 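Active includes knockdowns raising or lowering LDL uptake; positive z-scores mean more uptake, negative mean less.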 Unmarked entries are inactive.

| gene symbol | robust z-score, replicate 1 | robust z-score, replicate 2 | robust z-score, replicate 3 |
| --- | --- | --- | --- |
| CUZD1 (CUB and zona pellucida like domains 1) | 1.29 | -0.463 | 1.16 |
| EIF5B (eukaryotic translation initiation factor 5B) | -0.691 | -0.657 | -0.66 |
| LOC389339 (retired record) | 0.151 | 0.547 | 0.679 |
| DNM2 (dynamin 2) | -0.652 | -0.882 | -0.779 |
| ISL2 (ISL LIM homeobox 2) | 0.125 | 0.502 | -0.585 |
| OR5AU1 (olfactory receptor family 5 subfamily AU member 1) | 0.344 | -0.183 | -0.2 |
| GPCPD1 (glycerophosphocholine phosphodiesterase 1) | -2.25 (active) | -0.00791 | -2.25 |
| XAGE1B (X antigen family member 1B) | -0.557 | -1.47 | -1.27 |
| SNX3 (sorting nexin 3) | -0.356 | -0.301 | 0.61 |
| MORC3 (MORC family CW-type zinc finger 3) | -1.26 | -2.38 | 0.815 |
| RSAD1 (radical S-adenosyl methionine domain containing 1) | -0.243 | -1.39 | -0.56 |
| TMEM167B (transmembrane protein 167B) | -1.06 | 0.535 | -0.809 |
| PCNX2 (pecanex 2) | -0.448 | -0.482 | -0.459 |
| NPM2 (nucleophosmin/nucleoplasmin 2) | -0.618 | -0.697 | -0.681 |
| LOC389159 (retired record) | 2.93 (active) | 4.93 | 4.04 |
| HSPA1B (heat shock protein family A (Hsp70) member 1B) | 0.204 | -0.0857 | -0.529 |
| LOC388361 (retired record) | -0.466 | -0.595 | -0.14 |
| PPFIA1 (PPFI scaffold protein A1) | -0.546 | -1.02 | -0.512 |
| PDK4 (pyruvate dehydrogenase kinase 4) | -1.35 | -0.942 | -0.625 |
| POLR2K (RNA polymerase II, I and III subunit K) | 0.0963 | -0.686 | -0.872 |
| NOA1 (nitric oxide associated 1) | 0.342 | 0.915 | 1.28 |
| ACNATP (acyl-CoA:amino acid N-acyltransferase, pseudogene) | -0.315 | -0.509 | -1.39 |
| SRPRA (SRP receptor subunit alpha) | -3.12 | -1.56 | -1.66 |
| SLA2 (Src like adaptor 2) | -0.175 | -0.0392 | -0.191 |

Continued, starting with the last 2 of the part before.
| gene symbol | robust z-score, replicate 1 | robust z-score, replicate 2 | robust z-score, replicate 3 |
| --- | --- | --- | --- |
| SRPRA (SRP receptor subunit alpha) | -3.12 | -1.56 | -1.66 |
| SLA2 (Src like adaptor 2) | -0.175 | -0.0392 | -0.191 |
| TMEM63A (transmembrane protein 63A) | 0.686 | 0.532 | -0.794 |
| HMGB4 (high mobility group box 4) | -0.886 | -1.04 | -1.64 |
| TNNT2 (troponin T2, cardiac type) | -1.76 | -2.45 | -0.585 |
| ATG5 (autophagy related 5) | 2.38 (active) | 2.02 | 0.314 |
| PILRA (paired immunoglobin like type 2 receptor alpha) | -2.55 | -0.00119 | 0.165 |
| OR5J2 (olfactory receptor family 5 subfamily J member 2) | 0.247 | 0.422 | 0.442 |
| FAM117B (family with sequence similarity 117 member B) | -0.476 | -1.12 | -1.1 |
| LRRC8D (leucine rich repeat containing 8 VRAC subunit D) | -0.399 | -0.043 | -0.52 |
| KHDRBS3 | -0.151 | -0.925 | -0.0813 |
| LOC441382 (retired record) | 1.31 | 0.978 | 0.654 |
| CLDN3 (claudin 3) | 1.18 | 0.74 | 0.795 |
| BCORL1 (BCL6 corepressor like 1) | 3.79 (active) | 3.08 | 3.02 |
| IL17C (interleukin 17C) | 1.34 | -0.64 | 0.637 |
| DAD1 (defender against cell death 1) | -0.26 | -1.35 | -0.658 |
| GPR75 (G protein-coupled receptor 75) | -1.34 | -0.926 | -0.508 |
| TRIM44 (TRIM family member 44) | -0.628 | -1.88 | -0.692 |
| MTMR7 (myotubularin related protein 7) | -0.571 | -0.586 | -0.486 |
| NUP58 (nucleoporin 58) | 0.215 | 0.781 | 0.474 |
| SRPX2 (sushi repeat containing protein X-linked 2) | 0.302 | -0.256 | 0.538 |
| CRB2 (crumbs cell polarity complex component 2) | -1.37 | -1.14 | -1.42 |
| VARS1 (valyl-tRNA synthetase 1) | 0.753 | 1.46 | 0.593 |
| AHI1 (Abelson helper integration site 1) | 0.36 | 2.74 | 1.74 |
